Article PMC4169592
Results are given in words; binding and its absence hold for the method and conditions named. A result given as binding can be weak or reduced; the word gives no strength. For some assays here: In cells and extracts the contact can be indirect. For some assays here: Tags and fused reporters may be left off the sequences shown.

Key:
myc-tagged CPEB2 = target: T1, myc-tagged CPEB2 (UniProt Q812E0); assay: co-IP; 293T cells co-transfected with two or three plasmids; lysed in IP buffer (50 mM Tris pH 7.4, 150 mM NaCl, 0.5 mM EDTA, 0.5% NP40, 20% glycerol, 1 mM DTT, 100 µg/ml RNaseA), 4°C; protein G beads with myc, flag or GFP antibody, western blot; some cells treated with arsenite ± PD98059, SB2035800, SP600125 or with wt or DN-JNK1
T1 sequence: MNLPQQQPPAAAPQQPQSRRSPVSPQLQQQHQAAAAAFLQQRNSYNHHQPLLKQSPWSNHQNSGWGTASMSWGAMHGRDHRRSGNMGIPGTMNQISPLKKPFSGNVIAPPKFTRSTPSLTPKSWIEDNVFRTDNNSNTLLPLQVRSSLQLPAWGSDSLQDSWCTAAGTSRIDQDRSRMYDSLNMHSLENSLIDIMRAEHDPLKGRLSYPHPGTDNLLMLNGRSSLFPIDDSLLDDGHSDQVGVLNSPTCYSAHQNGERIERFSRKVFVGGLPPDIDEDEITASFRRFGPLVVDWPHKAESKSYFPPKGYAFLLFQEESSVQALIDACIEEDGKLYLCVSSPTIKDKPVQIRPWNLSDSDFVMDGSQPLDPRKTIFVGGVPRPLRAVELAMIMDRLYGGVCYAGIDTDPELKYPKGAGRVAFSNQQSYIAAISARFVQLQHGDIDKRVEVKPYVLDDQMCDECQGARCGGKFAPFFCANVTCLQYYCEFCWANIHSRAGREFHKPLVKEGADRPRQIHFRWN

myc-tagged CPEB3 = target: T2, myc-tagged CPEB3 (UniProt Q7TN99); assay: as above
T2 sequence: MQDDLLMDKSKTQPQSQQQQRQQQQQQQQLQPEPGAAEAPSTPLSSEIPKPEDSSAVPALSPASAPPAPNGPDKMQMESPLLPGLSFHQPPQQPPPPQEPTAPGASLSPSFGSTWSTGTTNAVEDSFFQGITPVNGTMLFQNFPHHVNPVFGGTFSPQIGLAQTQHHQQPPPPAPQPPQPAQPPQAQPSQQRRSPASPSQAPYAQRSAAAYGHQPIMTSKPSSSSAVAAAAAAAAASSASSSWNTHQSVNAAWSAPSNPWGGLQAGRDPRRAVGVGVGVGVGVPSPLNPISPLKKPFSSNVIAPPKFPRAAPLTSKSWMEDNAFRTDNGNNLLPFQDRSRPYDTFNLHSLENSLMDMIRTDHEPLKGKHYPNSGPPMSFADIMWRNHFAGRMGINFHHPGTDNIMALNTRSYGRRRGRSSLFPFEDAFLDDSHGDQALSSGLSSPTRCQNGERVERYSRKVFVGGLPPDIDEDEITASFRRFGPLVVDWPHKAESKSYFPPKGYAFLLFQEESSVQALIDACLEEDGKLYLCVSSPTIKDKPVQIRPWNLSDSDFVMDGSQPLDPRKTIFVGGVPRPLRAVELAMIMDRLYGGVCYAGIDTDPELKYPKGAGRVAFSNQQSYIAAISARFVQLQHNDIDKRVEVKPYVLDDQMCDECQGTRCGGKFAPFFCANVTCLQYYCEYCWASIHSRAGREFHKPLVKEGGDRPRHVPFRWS

[1] = target: T3, flag-tagged Vinexin α (mouse) (UniProt Q9R1Z8); assay: as above
T3 sequence: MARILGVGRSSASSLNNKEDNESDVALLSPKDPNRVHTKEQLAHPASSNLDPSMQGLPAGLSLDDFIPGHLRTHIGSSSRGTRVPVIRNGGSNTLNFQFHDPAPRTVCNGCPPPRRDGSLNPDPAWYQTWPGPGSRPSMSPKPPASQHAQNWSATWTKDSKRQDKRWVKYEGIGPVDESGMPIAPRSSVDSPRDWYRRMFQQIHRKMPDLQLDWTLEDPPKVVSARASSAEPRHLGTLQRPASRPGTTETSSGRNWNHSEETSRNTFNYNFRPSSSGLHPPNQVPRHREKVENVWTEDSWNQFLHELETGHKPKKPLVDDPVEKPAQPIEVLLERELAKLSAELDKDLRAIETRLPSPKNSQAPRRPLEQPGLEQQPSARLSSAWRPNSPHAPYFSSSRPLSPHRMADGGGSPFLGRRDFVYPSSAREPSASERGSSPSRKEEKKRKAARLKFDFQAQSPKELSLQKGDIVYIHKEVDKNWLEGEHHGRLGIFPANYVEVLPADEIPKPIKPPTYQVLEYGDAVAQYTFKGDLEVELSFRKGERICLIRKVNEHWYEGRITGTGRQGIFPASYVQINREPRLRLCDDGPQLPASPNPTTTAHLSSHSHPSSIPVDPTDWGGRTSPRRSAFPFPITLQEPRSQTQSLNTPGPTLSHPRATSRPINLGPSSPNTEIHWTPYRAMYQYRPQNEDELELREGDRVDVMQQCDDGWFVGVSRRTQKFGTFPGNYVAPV

EGFP-Vinexin β (mouse) = assay: co-IP; 293T cells overexpressing EGFP-Vinexin β or EGFP, ± arsenite, mildly crosslinked with 0.8% formaldehyde, lysed in IP buffer, sonicated; IP with GFP antibody, blot for endogenous CPEB4
[2] = target: N-terminus of CPEB4 (a.a. 1–458), yeast two-hybrid bait (rat); assay: two-hybrid; yeast two-hybrid screen: N-terminal 458 a.a. of rat CPEB4 (pGBKT7) as bait against a mouse brain cDNA library

## flag-tagged Vinexin β (mouse)
myc-tagged CPEB2
  binding: binds
myc-tagged CPEB3
  binding: binds

## myc-tagged CPEB4 (rat)
[1]
  binding: binds

B1: endogenous CPEB4 of 293T cells (protein, UniProt Q17RY0 1-729)
chain: MGDYGFGVLVQSNTGNKSAFPVRFHPHLQPPHHHQNATPSPAAFINNNTAANGSSAGSAWLFPAPATHNIQDEILGSEKAKSQQQEQQDPLEKQQLSPSPGQEAGILPETEKAKSEENQGDNSSENGNGKEKIRIESPVLTGFDYQEATGLGTSTQPLTSSASSLTGFSNWSAAIAPSSSTIINEDASFFHQGGVPAASANNGALLFQNFPHHVSPGFGGSFSPQIGPLSQHHPHHPHFQHHHSQHQQQRRSPASPHPPPFTHRNAAFNQLPHLANNLNKPPSPWSSYQSPSPTPSSSWSPGGGGYGGWGGSQGRDHRRGLNGGITPLNSISPLKKNFASNHIQLQKYARPSSAFAPKSWMEDSLNRADNIFPFPDRPRTFDMHSLESSLIDIMRAENDTIKGRLNYSYPGSDSSLLINARTYGRRRGQSSLFPMEDGFLDDGRGDQPLHSGLGSPHCFSHQNGERVERYSRKVFVGGLPPDIDEDEITASFRRFGPLIVDWPHKAESKSYFPPKGYAFLLFQDESSVQALIDACIEEDGKLYLCVSSPTIKDKPVQIRPWNLSDSDFVMDGSQPLDPRKTIFVGGVPRPLRAVELAMIMDRLYGGVCYAGIDTDPELKYPKGAGRVAFSNQQSYIAAISARFVQLQHGEIDKRVEVKPYVLDDQLCDECQGARCGGKFAPFFCANVTCLQYYCEYCWAAIHSRAGREFHKPLVKEGGDRPRHISFRWN
EGFP-Vinexin β (mouse)
  binding: binds

B2: Vinexin α a.a. 483–633 (yeast two-hybrid clone) (domain or fragment, UniProt Q9R1Z8 483-633)
chain: EGEHHGRLGIFPANYVEVLPADEIPKPIKPPTYQVLEYGDAVAQYTFKGDLEVELSFRKGERICLIRKVNEHWYEGRITGTGRQGIFPASYVQINREPRLRLCDDGPQLPASPNPTTTAHLSSHSHPSSIPVDPTDWGGRTSPRRSAFPFP
[2]
  binding: binds
